Laboratory results reported in patent US20210186073A1, “FLAVOR DELIVERY SYSTEM” (GIVAUDAN SA, priority 2016, published 2021).
At least one structure is not confirmed: it was looked up by name or label, or the drawing left a doubt.

Assay: OXITEST oxidative stability (induction point, ASTM D942 IP method)
Format: physicochemical
Conditions: OXITEST 55° C. and 6 bar; non-encapsulated flavorant, equivalent weight

SMILES | Induction Point for flavorant (hours)
C=C(C)[C@H]1CC=C(C)CC1 [11A, limonene] | 15:54 hours
C=C(C)[C@H]1CC=C(C)CC1 [Comparative Example 12A, limonene] | 10:10 hours
